Results are given in words; binding and its absence hold for the method and conditions named. Binding seen in cells or lysates may run through a third protein. Some entries that bind do so weakly or less than the wild type. Values belong to the substance of their own block, whether it stands above or below them.
Experiments:
[1] = target: dopamine transporter (DAT) (human) (UniProt Q01959); assay: co-IP; reverse: lysate (500 μg) of HEK-293T cells co-expressing DAT and DJ-1; 2 μg DAT antibodies, rat IgG as control; blot for DJ-1
[2] = target: DJ-1 (wild type) (human) (UniProt Q99497); assay: co-IP; lysate (500 μg) of HEK-293T cells co-transfected with DAT and DJ-1; 2 μg anti-DJ-1 antibody on protein A/G agarose, overnight 4°C, modified RIPA buffer; blot for DAT
[3] = target: DJ-1 (wild type) (human) (UniProt Q99497); assay: co-IP; competition: lysate (500 μg) of HEK-293T cells co-transfected with DAT, DJ-1 and either pcDNA3 or the DJ-1,3A mini-gene; co-immunoprecipitation of DAT with DJ-1, quantified (n = 7)
[4] = target: GST-DJ-1,3 (T108-D189) (human) (UniProt Q99497); assay: pull-down; 50 μg GST fusion protein incubated with 500–750 μg extract of HEK-293T cells transfected with DAT, overnight 4°C; glutathione-agarose beads; washes PBS with 0.05–0.1% Triton X-100; blot for DAT; only the target purified
[5] = target: GST-DJ-1,3A [S161-K175] (human) (UniProt Q99497); assay: as above
[6] = target: GST-DJ-1,3B [E176-D189] (human) (UniProt Q99497); assay: as above
[7] = target: T1, DJ-1, rat striatum (rat (endogenous in striatum)) (UniProt O88767); assay: co-IP; solubilized rat striatal tissue (750 μg), modified RIPA buffer; immunoprecipitated with DJ-1 antibody; blot for DAT
T1 sequence: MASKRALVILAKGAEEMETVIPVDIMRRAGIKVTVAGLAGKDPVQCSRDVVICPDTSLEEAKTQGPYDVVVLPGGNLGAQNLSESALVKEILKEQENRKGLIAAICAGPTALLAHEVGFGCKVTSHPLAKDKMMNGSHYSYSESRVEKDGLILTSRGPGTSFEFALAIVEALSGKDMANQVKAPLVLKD

Chains of the proteins cited; added tags and fusions are not shown.
UniProt Q01959: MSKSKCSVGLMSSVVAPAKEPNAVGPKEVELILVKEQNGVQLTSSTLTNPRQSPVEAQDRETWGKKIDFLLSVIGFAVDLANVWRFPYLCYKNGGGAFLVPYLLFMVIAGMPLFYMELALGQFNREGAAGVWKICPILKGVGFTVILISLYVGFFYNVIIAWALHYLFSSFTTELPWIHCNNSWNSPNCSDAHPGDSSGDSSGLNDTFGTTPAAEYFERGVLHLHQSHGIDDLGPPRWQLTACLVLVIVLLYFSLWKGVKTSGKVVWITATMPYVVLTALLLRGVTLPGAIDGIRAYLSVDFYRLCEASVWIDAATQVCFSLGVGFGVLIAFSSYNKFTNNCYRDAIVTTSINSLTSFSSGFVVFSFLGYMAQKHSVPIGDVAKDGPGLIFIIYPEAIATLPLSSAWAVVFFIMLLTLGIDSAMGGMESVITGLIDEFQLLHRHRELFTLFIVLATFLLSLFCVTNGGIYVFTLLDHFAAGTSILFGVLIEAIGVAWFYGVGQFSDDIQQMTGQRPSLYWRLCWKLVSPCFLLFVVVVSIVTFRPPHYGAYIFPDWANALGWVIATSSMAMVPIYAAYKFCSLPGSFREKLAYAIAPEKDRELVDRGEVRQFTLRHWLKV
UniProt P23977: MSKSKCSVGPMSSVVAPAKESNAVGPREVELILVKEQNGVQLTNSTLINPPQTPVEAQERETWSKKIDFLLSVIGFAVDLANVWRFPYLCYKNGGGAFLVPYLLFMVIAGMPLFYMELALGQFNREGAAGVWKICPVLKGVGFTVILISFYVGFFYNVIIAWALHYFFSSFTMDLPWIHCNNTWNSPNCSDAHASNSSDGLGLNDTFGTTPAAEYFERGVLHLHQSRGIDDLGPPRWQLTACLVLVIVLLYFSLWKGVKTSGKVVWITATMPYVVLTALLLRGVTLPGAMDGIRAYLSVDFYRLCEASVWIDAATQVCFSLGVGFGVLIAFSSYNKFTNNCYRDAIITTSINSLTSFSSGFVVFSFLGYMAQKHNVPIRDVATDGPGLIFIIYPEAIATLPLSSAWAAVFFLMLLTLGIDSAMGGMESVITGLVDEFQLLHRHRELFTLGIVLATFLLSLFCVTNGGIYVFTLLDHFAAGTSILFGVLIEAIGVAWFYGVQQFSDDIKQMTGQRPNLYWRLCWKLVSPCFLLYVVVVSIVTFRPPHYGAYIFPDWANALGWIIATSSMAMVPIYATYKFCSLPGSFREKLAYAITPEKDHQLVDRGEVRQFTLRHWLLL

binding [1]: binds
Substance: DJ-1 (wild type) (from UniProt Q99497 1-189)

binding [2]: binds | binding [3]: binds | binding [4]: binds | binding [5]: binds
Substance: dopamine transporter (DAT) (from UniProt Q01959 1-620)
binding [6]: no binding (tested: 50 μg of GST fusion protein)

binding [7]: binds
Substance: dopamine transporter (DAT), rat striatum (from UniProt P23977 1-619)
